{"sequences": {"note": "Chains of the proteins cited; added tags and fusions are not shown.", "UniProt P08684, whole entry, looked up": "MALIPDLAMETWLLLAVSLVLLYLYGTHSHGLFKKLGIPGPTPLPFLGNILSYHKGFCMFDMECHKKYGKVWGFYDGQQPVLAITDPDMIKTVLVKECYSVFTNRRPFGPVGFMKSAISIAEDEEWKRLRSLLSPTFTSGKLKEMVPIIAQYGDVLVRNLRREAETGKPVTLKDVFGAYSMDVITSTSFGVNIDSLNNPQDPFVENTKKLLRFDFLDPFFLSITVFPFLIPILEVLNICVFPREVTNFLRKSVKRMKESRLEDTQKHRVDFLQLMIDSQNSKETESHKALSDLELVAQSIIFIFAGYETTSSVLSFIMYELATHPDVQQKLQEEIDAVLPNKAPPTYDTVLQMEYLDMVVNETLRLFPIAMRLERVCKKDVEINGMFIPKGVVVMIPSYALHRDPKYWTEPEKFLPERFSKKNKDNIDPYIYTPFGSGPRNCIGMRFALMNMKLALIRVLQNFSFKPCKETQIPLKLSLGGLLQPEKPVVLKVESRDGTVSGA", "UniProt Q9NUW8, whole entry, looked up": "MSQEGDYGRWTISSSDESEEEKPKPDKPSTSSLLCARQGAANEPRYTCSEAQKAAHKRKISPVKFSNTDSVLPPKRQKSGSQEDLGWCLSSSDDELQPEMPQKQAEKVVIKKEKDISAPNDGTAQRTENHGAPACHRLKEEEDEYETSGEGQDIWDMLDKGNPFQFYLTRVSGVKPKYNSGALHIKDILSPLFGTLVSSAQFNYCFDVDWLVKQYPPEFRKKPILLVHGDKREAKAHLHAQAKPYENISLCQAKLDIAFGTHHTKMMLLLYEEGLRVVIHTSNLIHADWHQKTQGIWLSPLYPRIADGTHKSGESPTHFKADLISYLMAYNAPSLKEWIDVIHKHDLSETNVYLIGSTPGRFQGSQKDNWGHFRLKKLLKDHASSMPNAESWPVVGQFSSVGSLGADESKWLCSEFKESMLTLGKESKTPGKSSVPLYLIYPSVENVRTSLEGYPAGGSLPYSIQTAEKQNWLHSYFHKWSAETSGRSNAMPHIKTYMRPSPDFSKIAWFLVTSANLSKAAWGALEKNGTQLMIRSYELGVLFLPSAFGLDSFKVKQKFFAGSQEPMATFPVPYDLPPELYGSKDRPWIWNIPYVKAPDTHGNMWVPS"}, "source": "PubChem BioAssay (NCATS)", "key": {"[1]": {"assay": "Dual reporter qHTS for agonist of Pregnane X Receptor (hPXR) against the NCATS DSHEA and TCM libraries: Fluorescence readout (AID 1920058); further: potency means the concentration at half of the fitted maximal effect", "conditions": "PXR dual reporter cells", "procedure,_shortened": "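Cells were plated at 2000 per well and allowed to attach for 5 h. Test substances were pinned in and incubated roughly 24 h. CellTiter-Fluor was then added and fluorescence measured after 1 h.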"}, "[2]": {"assay": "Cellular Toxicity (caspase-3) BJ (AID 658)", "conditions": "BJ fibroblasts, luminescence; Potency: caspase-3 activation; series mostly up to 91.7 µM", "procedure,_shortened": "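Caspase-Glo 3/7 luminescence, read 1 hr after reagent at room temperature, in normal BJ fibroblasts exposed 16 hours at 37 °C. AC50 values from Hill-equation concentration-response, scaled between DMSO basal and 10 uM staurosporine as 100%.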"}, "[3]": {"assay": "qHTS assay for small molecule activators of the nuclear factor-kappa B (NF-kB) signaling pathway (AID 651749; active means well fitted activation curve with a large enough effect in the signal ratio; inconclusive means small, poorly fitted or top-dose-only effect, or a change in a side signal; the % refers to the signal ratio)", "conditions": "NF-kB-bla ME-180 cells, beta-lactamase FRET ratio, 16 h; activation: stronger effect = higher value", "procedure,_shortened": "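Activation measured after 16 hr compound treatment at 37C, 5% CO2, of 2,000 ME-180 cells/well stably expressing an NF-kB response element–driven beta-lactamase reporter, via FRET-disruption fluorescence.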"}, "[4]": {"assay": "MultiTox-Fluor Cytotoxicity Assay - LYMP1-002 - Dead Cells (AID 960); further: potency means the concentration at half of the fitted maximal effect; nearly all actives have a fitted effect of over 60% in size", "conditions": "LYMP1-002 lymphoblastoid cells, dead-cell protease fluorescence; series mostly up to 46.1 µM", "procedure,_shortened": "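Cells were plated, rested 5 hr, then treated with compound dilution series for 16 hr at 37 C. After adding substrate reagent and 60 min at room temperature, dead-cell protease fluorescence gave concentration-response curves fitted by the Hill equation.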"}, "[5]": {"assay": "Cell Viability - LYMP2-011 (AID 969); further: nearly all actives have a fitted effect of over 60% in size", "conditions": "LYMP2-011 lymphoblastoid cells viability; series mostly up to 92.2 µM", "procedure,_shortened": "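In this qHTS cytotoxicity format, compounds are tested across concentrations on human lymphoblastoid cells in complete medium for 24 hours at 37 C. Viability is taken as cellular ATP measured by luciferase luminescence.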"}, "[6]": {"assay": "Cellular Toxicity (caspase-3) NIH 3T3 (AID 666)", "conditions": "NIH 3T3 caspase-3 activation, apoptosis/toxicity, 0% DMSO, 100% is 100 µM tamoxifen; at 92.2 µM (top of the series)", "procedure,_shortened": "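Cells were plated at 1000 per well and incubated 5 hr at 37°C, then compound was added for 16 hr. Caspase-Glo 3/7 reagent followed for 20 min at room temperature before luminescence was read.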"}, "[7]": {"biological_target": "Cytochrome P450 3A4 (Homo sapiens) (UniProt P08684)", "assay": "qHTS Assay for Inhibitors and Substrates of Cytochrome P450 3A4 (AID 884); further: nearly all actives have a fitted effect of over 50% in size", "conditions": "recombinant CYP3A4, Luciferin-PPXE luminescence; activity change, negative = inhibition: at 57.1 µM (top of the series)", "procedure,_shortened": "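Luminescent readout of luciferin produced by CYP3A4 (20 nM) dealkylation of Luciferin-PPXE, 25 uM (its KM). NADPH-driven reaction ran 60 min at RT after 10 min compound preincubation; data scaled to 57 uM ketoconazole as 100% inhibition.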"}, "[8]": {"assay": "Cell Viability - LYMP2-012 (AID 982);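 further: cells exposed to compound for one day before reading; nearly all actives have a fitted effect of over 55% in size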", "conditions": "LYMP2-012 lymphoblastoid cell viability qHTS; series mostly up to 92.2 µM"}, "[9]": {"assay": "Cell Viability - LYMP2-017 (AID 972); further: nearly all actives have a fitted effect of over 55% in size", "conditions": "LYMP2-017 lymphoblastoid cell viability; series mostly up to 92.2 µM", "procedure,_shortened": "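Cytotoxicity is scored as a concentration-dependent drop in cellular ATP in a human lymphoblastoid line after 24 hr treatment at 37 C. Values are AC50s from Hill-equation modelling.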"}, "[10]": {"assay": "Cell Viability - LYMP2-023 (AID 975); further: nearly all actives have a fitted effect of over 55% in size", "conditions": "LYMP2-023 lymphoblastoid cell viability; series mostly up to 92.2 µM", "procedure,_shortened": "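Steps: seed 2500 human lymphoblastoid cells per well, incubate 5 hr at 37 C, add compound for 24 hr at 37 C, add CellTiter-Glo, hold 30 min at room temperature, read luminescence. AC50 derived by Hill modelling.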"}, "[11]": {"assay": "Cell Viability - LYMP1-003 - Assay at 40 hr (AID 964); further: nearly all actives have a fitted effect of over 60% in size", "conditions": "LYMP1-003 lymphoblastoid viability; series mostly up to 92.2 µM", "procedure,_shortened": "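Luminescent ATP signal (CellTiter-Glo) served as the viability read-out after 40 hr compound treatment of human lymphoblastoid LYMP1-003 cells at 37 C. Decreases in ATP were fitted with the Hill equation to give AC50.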"}, "[12]": {"assay": "Cell Viability - LYMP2-007 (AID 979); further: nearly all actives have a fitted effect of over 60% in size", "conditions": "LYMP2-007 lymphoblastoid cell viability; series mostly up to 92.2 µM", "procedure,_shortened": "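Cells are seeded at 2500 per well and rested 5 hr. Compounds are then added over a concentration series for 24 hr at 37 C. CellTiter-Glo is added for 30 min at room temperature before luminescence reading.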"}, "[13]": {"assay": "Cellular Toxicity (caspase-3) H-4-II-E (AID 663)", "conditions": "H-4-II-E rat hepatoma, scaled: DMSO 0%, 100 µM tamoxifen 100%; at 92.2 µM (top of the series)", "procedure,_shortened": "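Caspase 3/7 activation measured by luminescent aminoluciferin substrate cleavage after 16 hr compound treatment of H-4-II-E cells in complete medium. Increase normalized between DMSO (basal) and 100 uM tamoxifen (100%); Hill-equation AC50 from concentration-response.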"}, "[14]": {"assay": "NFAT Signaling Pathway (AID 444; active means well fitted curve in either direction with a large enough effect, not every such curve was filed as active; inconclusive means small, poorly fitted or top-dose-only effect, or another doubt;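 further: carbachol stimulus at about its EC50 of 1 µM final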)", "conditions": "Jurkat NFAT-bla M1, carbachol, beta-lactamase ratio, 5 h; at 17.2 µM (top of the series)", "procedure,_shortened": "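Read-out: CCF4 FRET ratio (460 nm/530 nm) after 1 h RT dye loading, used for %activity and AC50 from titration series. Cells: Jurkat NFAT-β-lactamase/M1 line, treated with compound plus 1 uM carbachol for 5 h, 37 °C.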"}, "[15]": {"biological_target": "Cytochrome P450 3A4 (Homo sapiens) (UniProt P08684)", "assay": "Cytochrome P450 family 3 subfamily A member 4 (CYP3A4) small molecule antagonists: luciferase qHTS assay (AID 1645841; active means well fitted curve in the direction sought with a large enough effect in the repeat runs; inconclusive means weak or mixed curves; inactive means no such curve, though single readings can be large; an effect the other way counts as inactive or inconclusive; further: potency means the concentration at half of the fitted maximal effect; nearly all actives have a fitted effect of over 45% in size)", "conditions": "P450-Glo CYP3A4 enzyme assay, luciferin luminescence; series mostly up to 57.4 µM", "procedure,_shortened": "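Luminescent CYP3A4 activity readout: compounds plus enzyme-substrate mix 10 min at room temperature, reaction started with NADPH regenerating system for 1 h, stopped with detection reagent, read after 20 min. Ketoconazole served as control.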"}, "[16]": {"biological_target": "Tyrosyl-DNA phosphodiesterase 1 (Homo sapiens) (UniProt Q9NUW8)", "assay": "Confirmation Assay for Inhibitors of Tyrosyl-DNA Phosphodiesterase (TDP1) (AID 489007); further: potency means the concentration at half of the fitted maximal effect; nearly all actives have a fitted effect of over 40% in size", "conditions": "recombinant human TDP1 enzymatic activity, dose-response", "procedure,_shortened": "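Compounds are preincubated 15 min at room temperature with 1 nM recombinant human Tdp1. The reaction starts on adding 15 nM FITC-phosphotyrosine DNA substrate, runs 5 min, and is detected by AlphaScreen beads after 10 min.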"}, "[17]": {"assay": "qHTS of pediatric cancer cell lines to identify multiple opportunities for drug repurposing: Primary screen for TC32 cells (AID 1347089); further: nearly all actives have a fitted effect of over 60% in size", "conditions": "TC32 Ewing sarcoma viability, CellTiter-Glo luminescence, 48 h; series mostly up to 45.8 µM", "procedure,_shortened": "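qHTS, TC32, 48 h drug treatment, CellTiter-Glo luminescence as a proxy for metabolically active cells; primary top concentration 46 µM (MIPE 11-pt, NPC 8-pt); confirmatory 11-pt.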"}, "[18]": {"assay": "qHTS of pediatric cancer cell lines to identify multiple opportunities for drug repurposing: Primary screen for DAOY cells (AID 1347090); further: nearly all actives have a fitted effect of over 55% in size", "conditions": "DAOY medulloblastoma viability, CellTiter-Glo luminescence, 48 h; series mostly up to 46 µM", "procedure,_shortened": "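Cell viability, CellTiter-Glo luminescence; 500-1,000 cells/well, 8- or 11-point titration, 48 h compound exposure at 37 degrees C, 5% CO2. Controls: DMSO neutral, bortezomib 2.3 µM final as positive.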"}, "[19]": {"assay": "qHTS of pediatric cancer cell lines to identify multiple opportunities for drug repurposing: Primary screen for SK-N-MC cells (AID 1347093)", "conditions": "SK-N-MC viability, CellTiter-Glo luminescence, 48 h; activity change, negative = cytotoxic: at 46 µM (top of the series)", "procedure,_shortened": "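Metabolically active cells were quantified by ATP-dependent luminescence (CellTiter-Glo, 15 min at room temperature) following 48 h treatment. Cells had been plated at 500-1,000 per well and settled for 5 h beforehand.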"}, "[20]": {"assay": "qHTS of pediatric cancer cell lines to identify multiple opportunities for drug repurposing: Primary screen for Rh41 cells (AID 1347108);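 further: luminescence drop marks cytotoxic hits; nearly all actives have a fitted effect of over 70% in size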", "conditions": "Rh41 rhabdomyosarcoma viability, CellTiter-Glo luminescence, 48 h; series mostly up to 46 µM", "procedure,_shortened": "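Quantitative HTS format: each compound titrated (MIPE 11 points from 0.78 nM, NPC 8 points from 0.59 nM) onto cells plated 5 hours earlier. After 48 h at 37 degrees C, CellTiter-Glo luminescence was recorded.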"}}, "note": "Inconclusive results, whose numbers are uncertain, are shown with a selection of clear calls. A call without a number means that no potency is given here. For some assays here: Potencies beside an inconclusive call are fits to weak or partial responses and may not hold up. The source made the active and inactive calls. Unless noted, the call rests on the fitted dose curve; in most records, active means well fitted curve in the direction sought with a large enough effect; inconclusive means small, poorly fitted or top-dose-only effect, or another doubt; inactive means no such curve, though single readings can be large; an effect the other way counts as inactive or inconclusive.", "data": [{"smiles": "CCCCC/C=C\\C/C=C\\C/C=C\\CCCCC(=O)O", "values": [{"measurement": "Potency", "setting": "[1]", "value": "inconclusive: 0.0105 µM [activator, full curve]"}]}, {"smiles": "Nc1ncnc2c1ncn2[C@H]1CC[C@@H](CO)O1", "values": [{"measurement": "Potency", "setting": "[2]", "value": "inactive"}, {"measurement": "activation", "setting": "[3]", "value": "inconclusive: -1.92%"}]}, {"smiles": "CO/N=C(/C(=O)N[C@@H]1C(=O)N2C(C(=O)O)=C(COC(N)=O)CS[C@H]12)c1ccco1", "values": [{"measurement": "Potency", "setting": "[4]", "value": "inconclusive: 3.98 µM [cytotoxic, full curve, poor fit]"}, {"measurement": "Potency", "setting": "[5]", "value": "inactive"}]}, {"smiles": "[O-][N+](=Nc1ccccc1)c1ccccc1", "values": [{"measurement": "caspase-3 activation", "setting": "[6]", "value": "inactive: -7.63%"}]}, {"smiles": "Cc1cccc(C)c1NC(=O)C1CCCCN1C", "note": "(stereo not given)", "values": [{"measurement": "activity change, negative = inhibition", "setting": "[7]", "value": "inconclusive: -38.4% [inhibitor]"}]}, {"smiles": "CO", "values": [{"measurement": "Potency", "setting": "[8]", "value": "inactive"}]}, {"smiles": "ClC(Cl)Cl", "values": [{"measurement": "Potency", "setting": "[9]", "value": "inactive"}]}, {"smiles": "Cc1ccccc1", "values": [{"measurement": "Potency", "setting": "[10]", "value": "inactive"}]}, {"smiles": "NCCN", "values": [{"measurement": "Potency", "setting": "[11]", "value": "inactive"}, {"measurement": "Potency", "setting": "[12]", "value": "inactive"}]}, {"smiles": "C[C@H](CCC(=O)O)[C@H]1CC[C@H]2[C@@H]3[C@H](O)C[C@@H]4C[C@H](O)CC[C@]4(C)[C@H]3C[C@H](O)[C@]12C", "values": [{"measurement": "caspase-3 activation", "setting": "[13]", "value": "inactive: 0.89%"}]}, {"smiles": "CCCCC(=O)O[C@H]1CC[C@H]2[C@@H]3CCc4cc(O)ccc4[C@H]3CC[C@]12C", "values": [{"measurement": "activity change, negative = inhibition", "setting": "[14]", "value": "inconclusive: -52.8% [inhibitor]"}]}, {"smiles": "O=[N+]([O-])c1ccc(Oc2ccc(N=C=S)cc2)cc1", "values": [{"measurement": "Potency", "setting": "[15]", "value": "inconclusive: 3.38 µM [falling, partial curve]"}]}, {"smiles": "O=Cc1ccccc1C=O", "values": [{"measurement": "Potency", "setting": "[16]", "value": "active: 14.1 µM"}, {"measurement": "Potency", "setting": "[17]", "value": "inactive"}, {"measurement": "Potency", "setting": "[18]", "value": "inactive"}, {"measurement": "Potency", "setting": "[19]", "value": "inactive"}, {"measurement": "Potency", "setting": "[20]", "value": "inactive"}]}]}
